This note sets out measurements from the supplement of paper PMC11732987, “Enantioselective OTUD7B fragment discovery through chemoproteomics screening and high-throughput optimisation” (Communications Chemistry, 2025).

Some of the results follow. The data scatter; read single values as rough.

Compound in the first assay: ClCC(=O)N[C@H]1CCCc2ccccc12
Nature of the assay: log2 mean competition ratio of IA-DTB cysteine labelling (DMSO/compound) (log2 ratio); higher = stronger cysteine engagement by compound. Conditions: 50 µM; treatment time: 4 h; cell line lysate: HEK293T. How it is done:
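IA-DTB competitive cysteine chemoproteomics in HEK293T RIPA lysate. Lysates were treated with compound 29 or 30 at 50 or 200 µM for 4 h, then IA-DTB (500 µM, 1 h), trypsin-digested, NeutrAvidin-enriched and analysed by diaPASEF. Competition ratio = intensity DMSO / intensity compound (n=4 treated, n=64 DMSO); binding: mean log2 CR ≥ 1 and p ≤ 0.05 plus QC filters. Target is the cysteine site.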
Consider DDX3X C223 (UniProt O00571), for which the “log2 mean competition ratio” value is 0.111.

Turning to CRNKL1 C745 (UniProt Q9BZJ0), the “log2 mean competition ratio” value was -0.123.

As for DCAF15 C347 (UniProt Q66K64), the “log2 mean competition ratio” value is -0.488.

Take DARS2 C449 (UniProt Q6PI48): the “log2 mean competition ratio” value worked out at 0.221.

Consider DDX51 C187 (UniProt Q8N8A6), for which the “log2 mean competition ratio” value is 0.38.

Take CSTF3 C536 (UniProt Q12996): the “log2 mean competition ratio” value is 0.0898.

CWF19L2 C299 (UniProt Q2TBE0): the “log2 mean competition ratio” value turned out to be 0.0772.

On to CSPG4 C533 (UniProt Q6UVK1), for which the “log2 mean competition ratio” value is -0.0475.

In the case of DCAF1 C967 (UniProt Q9Y4B6), the “log2 mean competition ratio” value was -0.0409.

DCLRE1A C207: the “log2 mean competition ratio” value was -0.158.

Take DDX39B C198: the “log2 mean competition ratio” value was -0.427.

Turning to D2HGDH C198 (UniProt Q8N465), the “log2 mean competition ratio” value came to 0.00366.

As to CUL3 C522 (UniProt Q13618), the “log2 mean competition ratio” value came out at 0.053.

For DCAF6 C593 (UniProt Q58WW2), the “log2 mean competition ratio” value is -0.243.

Consider CYLD C129 (UniProt Q9NQC7), for which the “log2 mean competition ratio” value was 0.247.

As to CSNK1E C241 (UniProt P49674), the “log2 mean competition ratio” value amounted to 0.492.

Turning to DCAF13 C120 (UniProt Q9NV06), the “log2 mean competition ratio” value came to 0.372.

As to DDX5 C191 (UniProt P17844), the “log2 mean competition ratio” value was -0.153.

On to DDX46 C377, for which the “log2 mean competition ratio” value is -0.0311.

Consider CTPS2 C313 (UniProt Q9NRF8), for which the “log2 mean competition ratio” value is -0.115.

Still in this assay, the particulars now being: 200 µM; treatment time: 4 h; cell line lysate: HEK293T.
Turning to DDX3X C223 (UniProt O00571), the “log2 mean competition ratio” value was determined as 0.0191.

Take CRNKL1 C745 (UniProt Q9BZJ0): the “log2 mean competition ratio” value was 0.208.

With DCAF15 C347 (UniProt Q66K64), the “log2 mean competition ratio” value is 0.208.

As for DARS2 C449 (UniProt Q6PI48), the “log2 mean competition ratio” value was -0.153.

As for DDX51 C187 (UniProt Q8N8A6), the “log2 mean competition ratio” value was found to be 0.101.

On to CSTF3 C536 (UniProt Q12996), for which the “log2 mean competition ratio” value was -0.0933.

Regarding CWF19L2 C299 (UniProt Q2TBE0), the “log2 mean competition ratio” value was 0.325.

As to CSPG4 C533 (UniProt Q6UVK1), the “log2 mean competition ratio” value turned out to be 0.404.

Consider DCAF1 C967 (UniProt Q9Y4B6), for which the “log2 mean competition ratio” value stood at 0.341.

For DCLRE1A C207, the “log2 mean competition ratio” value was 0.124.

Take DDX39B C198: the “log2 mean competition ratio” value was 0.0405.

Take D2HGDH C198 (UniProt Q8N465): the “log2 mean competition ratio” value was -0.0399.

For the target CUL3 C522 (UniProt Q13618), the “log2 mean competition ratio” value is -0.277.

In the case of DCAF6 C593 (UniProt Q58WW2), the “log2 mean competition ratio” value was -0.0252.

On to CYLD C129 (UniProt Q9NQC7), for which the “log2 mean competition ratio” value stood at 0.0119.

Take CSNK1E C241 (UniProt P49674): the “log2 mean competition ratio” value came to 0.269.

As to DCAF13 C120 (UniProt Q9NV06), the “log2 mean competition ratio” value is -0.191.

Regarding DDX5 C191 (UniProt P17844), the “log2 mean competition ratio” value came out at 0.175.

Regarding DDX46 C377, the “log2 mean competition ratio” value worked out at 0.0299.

Turning to CTPS2 C313 (UniProt Q9NRF8), the “log2 mean competition ratio” value is -0.153.
